These results are taken from PubChem BioAssay AID256 (DTP/NCI, 2004).

This test has as its system CD2F1 mice, L1210 leukemia ip, survival T/C. The test can be described thus: NCI In Vivo Anticancer Drug Screen. Data for tumor model L1210 Leukemia (intraperitoneal) in CD2F1 (CDF1) mice. The settings on record: higher T/C = longer survival. Here is the method: The antitumor activity of compounds was measured in mice bearing transplantable tumors. Survival or tumor size were measured and the results are expressed as the measurement made in the treated group (T) divided by the measurement made in the vehicle treated control group (C). The tumor model used in this assay is L1210 Leukemia (intraperitoneal) in CD2F1 (CDF1) mice

The mark [1] stands for this setting: T/C endpoint: mean survival time, dose: 31.3 mg/kg/injection, schedule: Q01DX001 (ip), vehicle: DMSO.
Setting [2] is: T/C endpoint: mean survival time, dose: 62.5 mg/kg/injection, schedule: Q01DX001 (ip), vehicle: DMSO.
Setting [3] is: T/C endpoint: mean survival time, dose: 125.0 mg/kg/injection, schedule: Q01DX001 (ip), vehicle: DMSO.
Where [4] appears, read: T/C endpoint: mean survival time, dose: 250.0 mg/kg/injection, schedule: Q01DX001 (ip), vehicle: DMSO.
The mark [5] stands for this setting: T/C endpoint: mean survival time, dose: 500.0 mg/kg/injection, schedule: Q01DX001 (ip), vehicle: DMSO.
[6] abbreviates: T/C endpoint: mean survival time, dose: 100.0 mg/kg/injection, schedule: Q04DX003 (ip), vehicle: saline with Tween-80.
The mark [7] stands for this setting: T/C endpoint: mean survival time, dose: 200.0 mg/kg/injection, schedule: Q04DX003 (ip), vehicle: saline with Tween-80.
[8] abbreviates: T/C endpoint: mean survival time, dose: 400.0 mg/kg/injection, schedule: Q04DX003 (ip), vehicle: saline with Tween-80.

The list is a part of this screen's results and no random one: its compounds were picked by chemical class. Other doses and runs of a compound may be missing. T/C gives the treated animals as a percentage of the vehicle group. Some entries give survivors of the animals treated and no T/C: the source files T/C as zero there, which appears to mark a toxic dose or a test without result, not a measured value. Some doses without a T/C left all or most animals alive at the check, yet need not have been tolerated: the source hardly ever lists a survival T/C far under the control, and the zero likely stands for such cases as well. Survivors were counted at the toxicity check, usually on the fifth day, unless a day is given; later deaths do not show. Schedule codes are those of the source, taken here to give the interval after Q, in days (D) or hours (H), and the number of doses after X. Some entries hold several experiments; the values are given in rising order. Where survival is the endpoint, the PubChem record calls one and a half times the control and up active, and a quarter to a half above the control has no call in these data; cut-offs in other NCI protocols can differ. Some T/C values carry the count of animals alive at the toxicity check (mostly the fifth day); where neither a count nor a note follows, no animal had died by that day. Some T/C values are marked as having no survivor count here; that says nothing about deaths at the dose.

Regarding `CCNC(=O)O[C@@H]1CC[N+]2([O-])CC=C(COC(=O)C(O)(CC)c3ccc(Cl)cc3)C12` (stereo not given in full), the T/C reads like this: (T/C endpoint: median survival time, dose: 6.25 mg/kg/injection, schedule: Q01DX005 (ip), vehicle: saline) 104 % of control; (T/C endpoint: median survival time, dose: 12.5 mg/kg/injection, schedule: Q01DX005 (ip), vehicle: saline) 108 % of control; (T/C endpoint: median survival time, dose: 25.0 mg/kg/injection, schedule: Q01DX005 (ip), vehicle: saline) 110 % of control; (T/C endpoint: median survival time, dose: 50.0 mg/kg/injection, schedule: Q01DX005 (ip), vehicle: saline) 115 % of control; (T/C endpoint: median survival time, dose: 100.0 mg/kg/injection, schedule: Q01DX005 (ip), vehicle: saline) 146 % of control.
For the molecule `CP1(=S)SP(C)(=S)S1` (stereo not given), the T/C is, setting by setting: (T/C endpoint: mean survival time, dose: 50.0 mg/kg/injection, schedule: Q01DX009 (ip), vehicle: saline with Tween-80) 98 % of control [survivor count not shown]; (T/C endpoint: mean survival time, dose: 100.0 mg/kg/injection, schedule: Q01DX009 (ip), vehicle: saline with Tween-80) 100 % of control [survivor count not shown].
`CCC(CC)NC(CC)CO.O=[N+]([O-])c1cc([N+](=O)[O-])c(O)c([N+](=O)[O-])c1`: the T/C reads like this: (T/C endpoint: mean survival time, dose: 75.0 mg/kg/injection, schedule: Q01DX001 (ip), vehicle: other) 101 % of control [survivor count not shown]; (T/C endpoint: mean survival time, dose: 150.0 mg/kg/injection, schedule: Q01DX001 (ip), vehicle: other) 93 % of control [survivor count not shown]; (T/C endpoint: mean survival time, dose: 300.0 mg/kg/injection, schedule: Q01DX001 (ip), vehicle: other) 98 % of control [survivor count not shown].
On to `O=P(Cl)(N(CCCl)CCCl)N1CCC(O)CC1` (stereo not given), for which the T/C was 103 % of control (T/C endpoint: mean survival time, dose: 15.6 mg/kg/injection, schedule: Q01DX001 (ip), vehicle: DMSO); 94 % of control under setting [1]; 105 % of control under setting [2]; 107 % of control under setting [3]; 107 % of control under setting [4]; 113 % of control under setting [5]. For the same molecule, the T/C (T/C endpoint: mean survival time, dose: 750.0 mg/kg/injection, schedule: Q01DX001 (ip), vehicle: DMSO) is 128 % of control [5 of 6 alive]. For the same molecule, the survivor count (T/C endpoint: mean survival time, dose: 1000.0 mg/kg/injection, schedule: Q01DX001 (ip), vehicle: DMSO) is listed as 0 of 6.
As to `Cc1[nH]c(=O)[nH]c(=O)c1N(CCCl)CCCl`, the T/C (T/C endpoint: mean survival time, dose: 1.0 mg/kg/injection, schedule: Q01DX007 (ip), vehicle: saline) was 146 % of control; the T/C (T/C endpoint: mean survival time, dose: 1.0 mg/kg/injection, schedule: Q01DX009 (ip), vehicle: saline) was 150 % of control; the T/C (T/C endpoint: mean survival time, dose: 1.0 mg/kg/injection, schedule: Q03DX003 (ip), vehicle: saline) was 127 % of control; the T/C (T/C endpoint: mean survival time, dose: 1.0 mg/kg/injection, schedule: Q04DX003 (ip), vehicle: saline) is 128 % of control; the T/C (T/C endpoint: mean survival time, dose: 2.0 mg/kg/injection, schedule: Q01DX007 (ip), vehicle: saline) is 160 % of control [5 of 6 alive]; the T/C (T/C endpoint: mean survival time, dose: 2.0 mg/kg/injection, schedule: Q01DX009 (ip), vehicle: saline) was 148 % of control. The T/C was 182 % of control (T/C endpoint: mean survival time, dose: 2.0 mg/kg/injection, schedule: Q03DX003 (ip), vehicle: saline); 151 % of control (T/C endpoint: mean survival time, dose: 2.0 mg/kg/injection, schedule: Q04DX003 (ip), vehicle: saline); 108 % of control [5 of 6 alive] (T/C endpoint: mean survival time, dose: 4.0 mg/kg/injection, schedule: Q01DX007 (ip), vehicle: saline); 86 % of control (T/C endpoint: mean survival time, dose: 4.0 mg/kg/injection, schedule: Q01DX009 (ip), vehicle: saline); 145 % of control [5 of 6 alive] (T/C endpoint: mean survival time, dose: 4.0 mg/kg/injection, schedule: Q03DX003 (ip), vehicle: saline); 126 % of control (T/C endpoint: mean survival time, dose: 4.0 mg/kg/injection, schedule: Q04DX003 (ip), vehicle: saline).
As for `ClP1(Cl)=NP(Cl)(Cl)=NP(Cl)(Oc2ccccc2)=N1` (stereo not given), the T/C runs as follows: (T/C endpoint: mean survival time, dose: 6.25 mg/kg/injection, schedule: Q01DX009 (ip), vehicle: saline with Tween-80) 102 % of control; (T/C endpoint: mean survival time, dose: 12.5 mg/kg/injection, schedule: Q01DX009 (ip), vehicle: saline with Tween-80) 100 % of control; (T/C endpoint: mean survival time, dose: 25.0 mg/kg/injection, schedule: Q01DX009 (ip), vehicle: saline with Tween-80) 108 % of control [5 of 6 alive]. The survivor count by setting is: under setting [6], 3 of 6; under setting [7], 0 of 6; under setting [8], 0 of 6.
For `O=C(OCCNCCCl)c1ccccc1`, the T/C by setting is: (T/C endpoint: mean survival time, dose: 100.0 mg/kg/injection, schedule: Q01DX009 (ip), vehicle: saline) 90 % of control; (T/C endpoint: mean survival time, dose: 100.0 mg/kg/injection, schedule: Q04DX003 (ip), vehicle: saline) 103 % of control; (T/C endpoint: mean survival time, dose: 200.0 mg/kg/injection, schedule: Q01DX009 (ip), vehicle: saline) 90 % of control; (T/C endpoint: mean survival time, dose: 200.0 mg/kg/injection, schedule: Q04DX003 (ip), vehicle: saline) 97 % of control; (T/C endpoint: mean survival time, dose: 400.0 mg/kg/injection, schedule: Q01DX009 (ip), vehicle: saline) 90 % of control; (T/C endpoint: mean survival time, dose: 400.0 mg/kg/injection, schedule: Q04DX003 (ip), vehicle: saline) 97 % of control.
On to `Nc1ccc(N(CCCl)CCCl)cc1`, for which the T/C reads like this: (T/C endpoint: mean survival time, dose: 0.06 mg/kg/injection, schedule: Q01DX009 (ip), vehicle: Klucel (hydroxypropylcellulose) (HPC)) 97 % of control; (T/C endpoint: mean survival time, dose: 0.13 mg/kg/injection, schedule: Q01DX009 (ip), vehicle: Klucel (hydroxypropylcellulose) (HPC)) 97 % of control; (T/C endpoint: mean survival time, dose: 0.25 mg/kg/injection, schedule: Q01DX009 (ip), vehicle: Klucel (hydroxypropylcellulose) (HPC)) 106 % of control [5 of 6 alive]; (T/C endpoint: mean survival time, dose: 0.5 mg/kg/injection, schedule: Q01DX009 (ip), vehicle: Klucel (hydroxypropylcellulose) (HPC)) 101, 108, 114 % of control; (T/C endpoint: mean survival time, dose: 1.0 mg/kg/injection, schedule: Q01DX009 (ip), vehicle: Klucel (hydroxypropylcellulose) (HPC)) 103, 106 [5 of 6 alive], 111 % of control; (T/C endpoint: mean survival time, dose: 2.0 mg/kg/injection, schedule: Q01DX009 (ip), vehicle: Klucel (hydroxypropylcellulose) (HPC)) 114, 115 [5 of 6 alive], 129 % of control. Further, the T/C (T/C endpoint: mean survival time, dose: 4.0 mg/kg/injection, schedule: Q01DX009 (ip), vehicle: Klucel (hydroxypropylcellulose) (HPC)) is 125 and 131 % of control. In addition, for the setting “T/C endpoint: mean survival time, dose: 8.0 mg/kg/injection, schedule: Q01DX009 (ip), vehicle: Klucel (hydroxypropylcellulose) (HPC)”, the survivor count was 5 of 6 and 6 of 6.
Turning to `Cc1cn(C2CC3O[P@](C)(=O)OCC3O2)c(=O)[nH]c1=O` (stereo not given in full), the T/C was 101 % of control (T/C endpoint: mean survival time, dose: 12.5 mg/kg/injection, schedule: Q01DX005 (ip), vehicle: water); 107 % of control (T/C endpoint: mean survival time, dose: 25.0 mg/kg/injection, schedule: Q01DX005 (ip), vehicle: water); 107 % of control (T/C endpoint: mean survival time, dose: 50.0 mg/kg/injection, schedule: Q01DX005 (ip), vehicle: water); 101 % of control (T/C endpoint: mean survival time, dose: 100.0 mg/kg/injection, schedule: Q01DX005 (ip), vehicle: water); 107 % of control (T/C endpoint: mean survival time, dose: 200.0 mg/kg/injection, schedule: Q01DX005 (ip), vehicle: water).
As for `CCCCN=C(N)C(N)=NCCCC.O=[N+]([O-])c1cc([N+](=O)[O-])c(O)c([N+](=O)[O-])c1`, under “T/C endpoint: mean survival time, dose: 200.0 mg/kg/injection, schedule: Q04DX002 (ip), vehicle: saline with Tween-80”, the T/C was 93 % of control [survivor count not shown].
With `CC(C=O)COP(N)(=O)N(CCCl)CCCl` (stereo not given), the T/C reads like this: (T/C endpoint: mean survival time, dose: 15.62 mg/kg/injection, schedule: Q01DX001 (ip), vehicle: DMSO) 101 % of control; under setting [1], 98 % of control; under setting [2], 103 % of control; under setting [3], 120 % of control; under setting [4], 120 % of control; under setting [5], 119 % of control.
For `Cc1ccc(Nc2c([N+](=O)[O-])cc([N+](=O)[O-])cc2[N+](=O)[O-])cc1C`, the T/C is 88 % of control under setting [6], 89 % of control under setting [7] and 89 % of control under setting [8].
